Assay results: doi:10.1101/2022.05.13.491857
Results are given in words; binding and its absence hold for the method and conditions named. For some of these results: Binding seen in cells or lysates may run through a third protein. Some entries that bind do so weakly or less than the wild type.

The chains behind the UniProt entries cited, without tags or fusion partners. Where a name states a change or a piece, a line headed by the entry shows the natural chain unless it says otherwise.
UniProt Q7TMB8: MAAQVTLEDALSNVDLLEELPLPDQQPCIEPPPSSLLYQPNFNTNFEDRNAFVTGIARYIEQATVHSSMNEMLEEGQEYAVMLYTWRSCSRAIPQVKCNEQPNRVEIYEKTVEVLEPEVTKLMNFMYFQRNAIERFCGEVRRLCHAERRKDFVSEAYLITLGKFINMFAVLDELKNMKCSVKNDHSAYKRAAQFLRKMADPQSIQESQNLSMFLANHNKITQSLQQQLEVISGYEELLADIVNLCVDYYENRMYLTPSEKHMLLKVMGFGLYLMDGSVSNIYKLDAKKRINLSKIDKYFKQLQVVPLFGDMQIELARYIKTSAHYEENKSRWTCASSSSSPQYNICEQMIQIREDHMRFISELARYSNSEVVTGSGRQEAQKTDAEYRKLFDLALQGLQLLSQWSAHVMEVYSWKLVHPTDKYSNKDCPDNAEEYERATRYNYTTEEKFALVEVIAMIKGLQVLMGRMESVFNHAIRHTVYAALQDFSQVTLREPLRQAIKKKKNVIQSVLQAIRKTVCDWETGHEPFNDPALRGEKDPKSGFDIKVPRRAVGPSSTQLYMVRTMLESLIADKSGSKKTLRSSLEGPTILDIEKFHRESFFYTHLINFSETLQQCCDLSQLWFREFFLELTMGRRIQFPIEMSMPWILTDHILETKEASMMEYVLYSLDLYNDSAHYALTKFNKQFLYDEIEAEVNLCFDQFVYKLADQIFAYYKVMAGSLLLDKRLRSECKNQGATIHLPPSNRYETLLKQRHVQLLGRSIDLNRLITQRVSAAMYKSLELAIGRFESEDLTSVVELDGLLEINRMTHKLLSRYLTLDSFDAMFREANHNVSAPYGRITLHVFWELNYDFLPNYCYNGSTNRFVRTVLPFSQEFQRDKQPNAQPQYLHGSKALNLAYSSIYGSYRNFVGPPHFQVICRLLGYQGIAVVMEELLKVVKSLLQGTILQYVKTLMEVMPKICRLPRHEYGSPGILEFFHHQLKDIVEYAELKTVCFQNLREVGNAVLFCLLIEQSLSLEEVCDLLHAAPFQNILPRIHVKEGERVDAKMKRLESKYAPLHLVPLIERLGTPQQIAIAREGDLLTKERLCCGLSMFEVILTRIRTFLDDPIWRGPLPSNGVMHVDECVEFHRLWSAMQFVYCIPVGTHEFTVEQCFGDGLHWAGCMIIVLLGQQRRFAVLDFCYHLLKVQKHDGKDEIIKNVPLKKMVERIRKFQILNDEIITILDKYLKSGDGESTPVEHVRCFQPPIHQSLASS
UniProt P62330: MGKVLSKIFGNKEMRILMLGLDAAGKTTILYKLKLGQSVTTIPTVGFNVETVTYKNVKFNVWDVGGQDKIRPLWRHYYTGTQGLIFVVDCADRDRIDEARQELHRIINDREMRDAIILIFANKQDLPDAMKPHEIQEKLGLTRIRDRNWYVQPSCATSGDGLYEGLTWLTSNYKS
UniProt P84085: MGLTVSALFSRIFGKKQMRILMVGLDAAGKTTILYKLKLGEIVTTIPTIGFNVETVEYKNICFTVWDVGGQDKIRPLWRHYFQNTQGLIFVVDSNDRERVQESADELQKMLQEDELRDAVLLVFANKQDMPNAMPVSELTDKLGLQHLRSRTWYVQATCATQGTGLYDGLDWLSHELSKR
UniProt Q8CBW3: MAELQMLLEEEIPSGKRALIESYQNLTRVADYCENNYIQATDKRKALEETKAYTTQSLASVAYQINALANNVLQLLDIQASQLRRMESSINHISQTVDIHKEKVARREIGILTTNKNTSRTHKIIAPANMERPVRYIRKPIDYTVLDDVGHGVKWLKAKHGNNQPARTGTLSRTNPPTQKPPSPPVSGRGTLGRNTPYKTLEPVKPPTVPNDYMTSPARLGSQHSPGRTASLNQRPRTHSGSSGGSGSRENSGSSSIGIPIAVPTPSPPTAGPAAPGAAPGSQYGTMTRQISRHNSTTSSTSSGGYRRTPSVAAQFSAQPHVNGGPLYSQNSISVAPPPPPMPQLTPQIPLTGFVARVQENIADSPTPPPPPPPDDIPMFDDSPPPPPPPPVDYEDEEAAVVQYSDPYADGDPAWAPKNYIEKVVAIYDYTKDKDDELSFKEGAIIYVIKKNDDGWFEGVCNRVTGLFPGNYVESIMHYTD
UniProt Q8BH43: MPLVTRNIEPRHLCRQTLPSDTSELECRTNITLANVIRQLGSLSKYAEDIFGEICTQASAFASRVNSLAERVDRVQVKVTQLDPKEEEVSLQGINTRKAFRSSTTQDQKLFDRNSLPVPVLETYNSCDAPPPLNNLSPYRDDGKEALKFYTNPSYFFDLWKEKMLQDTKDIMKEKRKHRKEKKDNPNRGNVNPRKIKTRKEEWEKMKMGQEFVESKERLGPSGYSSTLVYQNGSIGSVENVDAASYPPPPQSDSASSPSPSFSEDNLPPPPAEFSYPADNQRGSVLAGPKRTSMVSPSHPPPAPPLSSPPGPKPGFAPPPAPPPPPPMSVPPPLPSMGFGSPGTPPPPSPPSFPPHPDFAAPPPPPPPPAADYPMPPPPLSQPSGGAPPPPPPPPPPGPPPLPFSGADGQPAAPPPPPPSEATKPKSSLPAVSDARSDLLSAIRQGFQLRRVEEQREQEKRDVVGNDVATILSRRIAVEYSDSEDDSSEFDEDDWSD
UniProt Q7L576: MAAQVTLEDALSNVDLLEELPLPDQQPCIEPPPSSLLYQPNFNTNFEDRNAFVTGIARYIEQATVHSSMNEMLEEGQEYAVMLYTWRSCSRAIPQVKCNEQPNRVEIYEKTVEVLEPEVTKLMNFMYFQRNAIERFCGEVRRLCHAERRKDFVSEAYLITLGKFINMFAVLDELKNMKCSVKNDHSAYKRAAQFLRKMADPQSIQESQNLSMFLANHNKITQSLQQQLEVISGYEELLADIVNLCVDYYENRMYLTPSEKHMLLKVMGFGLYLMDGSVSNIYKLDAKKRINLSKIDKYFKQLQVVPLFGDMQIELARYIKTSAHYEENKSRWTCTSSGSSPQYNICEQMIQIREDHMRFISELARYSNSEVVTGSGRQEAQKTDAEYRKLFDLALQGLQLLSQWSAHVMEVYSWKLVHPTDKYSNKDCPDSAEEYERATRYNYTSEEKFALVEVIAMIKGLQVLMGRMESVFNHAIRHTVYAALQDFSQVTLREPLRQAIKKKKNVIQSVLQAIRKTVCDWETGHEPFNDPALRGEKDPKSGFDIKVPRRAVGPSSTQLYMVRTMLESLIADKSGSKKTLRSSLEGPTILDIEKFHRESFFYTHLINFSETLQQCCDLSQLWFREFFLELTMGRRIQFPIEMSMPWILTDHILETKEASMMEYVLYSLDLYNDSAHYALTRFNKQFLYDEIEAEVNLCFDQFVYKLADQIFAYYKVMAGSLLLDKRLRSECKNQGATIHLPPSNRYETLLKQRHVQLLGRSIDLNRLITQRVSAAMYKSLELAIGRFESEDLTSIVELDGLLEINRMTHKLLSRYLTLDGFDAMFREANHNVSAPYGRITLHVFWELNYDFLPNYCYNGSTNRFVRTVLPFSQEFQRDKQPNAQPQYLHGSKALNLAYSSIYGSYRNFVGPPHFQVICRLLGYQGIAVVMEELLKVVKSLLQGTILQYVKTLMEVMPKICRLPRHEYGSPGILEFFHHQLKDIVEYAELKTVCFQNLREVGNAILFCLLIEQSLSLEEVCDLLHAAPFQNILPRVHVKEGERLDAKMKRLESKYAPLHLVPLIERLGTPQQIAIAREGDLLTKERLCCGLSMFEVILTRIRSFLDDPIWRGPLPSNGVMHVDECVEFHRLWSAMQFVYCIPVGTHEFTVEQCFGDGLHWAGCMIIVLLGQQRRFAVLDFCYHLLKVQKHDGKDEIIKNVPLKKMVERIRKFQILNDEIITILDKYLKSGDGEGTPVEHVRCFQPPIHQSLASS

Legend:
[1] = biological target: EGFP-Sra1 ΔD (Sra1^Y967A) (murine) (UniProt Q7TMB8); test: co-IP
EGFP-Sra1 (WT) (murine) = EGFP-Sra1 (WT) (murine) (UniProt Q7TMB8); test: co-IP
[2] = biological target: EGFP-Sra1 ΔM #1 (Sra1^Y986A/E988A) (murine) (UniProt Q7TMB8); test: co-IP
[3] = biological target: EGFP-Sra1 ΔM #2 (Sra1^Y948A/T951A) (murine) (UniProt Q7TMB8); test: co-IP
GST-Arf6 = GST-Arf6 (UniProt P62330); test: pull-down
GST-Arf5 = GST-Arf5 (UniProt P84085); test: pull-down

Measured: binding

Abi1 (endogenous, B16-F1) (from UniProt Q8CBW3 1-481)
binds: [1] | EGFP-Sra1 (WT) (murine) | [2] | [3]

WAVE2 (endogenous, B16-F1) (from UniProt Q8BH43 1-497)
binds: [1] | EGFP-Sra1 (WT) (murine) | [2] | [3]

ΔWRC230 (from UniProt Q7L576 1-1253; Q9Y2A7 1-1128; Q92558 1-230; Q9NYB9 1-158; Q8WUW1 1-75) (complex)
binds: GST-Arf6 | GST-Arf5
